Laboratory results from PubChem BioAssay AID1487 (National Center for Advancing Translational Sciences (NCATS), 2009).
Hit rate of the full screen: of about 200,000 compounds, about 25 (0.01%) were called active. Inconclusive means that the source gave no clear call. Such entries were picked first, then a sample of the others. Calls follow the shape of the dose curve; as a rule, active = well fitted inhibition curve with a large enough effect in the signal ratio, with a control signal flat (not every such curve was filed as active); inconclusive = small, poorly fitted or top-dose-only effect, or effect the other way, or a change in a side signal; inactive = flat fitted curve, though single readings scatter; the % refers to the signal ratio. Where the call is inconclusive, the potency comes from a doubtful curve fit.

Assay: qHTS Assay for Modulators of Lamin A Splicing
Settings: HeLa LMNA splicing GFP/RFP minigene ratio, 48 h; ratio change, negative = inhibition: at 46.1 µM (top of the series) unless noted
Method in brief: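 S3 HeLa cells stably expressing lamin A-EGFP splicing minigene plus DsRed2, 600 cells/well, 48 h compound exposure at 37C. Laser-scanning cytometry; analysed as GFP (500-530 nm)/RFP (575-640 nm) total intensity ratio; 0.5% DMSO vehicle.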
% is scaled to controls: 0 for no effect and ±100 for the full control effect; potency is read from the fitted curve at half-maximal effect.

Row | SMILES | ratio change, negative = inhibition | Potency
1 | Cc1ccc(C(=O)Nc2nnc(COc3ccccc3)s2)cc1 | inactive: 8.2% [at 46 µM] | –
2 | COc1cc(C(=O)NC(=S)NNC(=O)c2cnccn2)cc(OC)c1OC | – | inconclusive: 35.5 µM [fluorescent, single point]
3 | Cc1cc(=O)[nH]c2c(C)c(Cl)ccc12 | inactive: -1.33% | –
4 | COC(=O)c1c(NC(=O)C2COc3ccccc3O2)sc2c1CCN(C(C)=O)C2 (centres undefined) | – | inconclusive: 12.6 µM [falling, partial curve]
5 | Fc1ccc(CSc2nncn2NC/C=C/c2ccccc2)cc1 | inactive: -12.3% | –
6 | CC(C)(C)C1CCc2c(sc3nc(-c4cc5cc(Cl)ccc5oc4=O)[nH]c(=O)c23)C1 (centres undefined) | inactive: 9.69% [at 46 µM] | –
7 | Cn1c(=O)cc(SCC(=O)NCCC2=CCCCC2)c2ccccc21 | inactive: -10.6% | –
8 | CCOc1ccc(CCNC(=O)c2c3c(nc4ccccc24)C(=O)N(C2CCCCC2)C3)cc1 | inactive: -1.1% [at 46 µM] | –
9 | CC(CNC(=O)c1cc2cc(S(=O)(=O)N3CCCCC3)ccc2n1C)c1ccccc1 (centres undefined) | inconclusive: -10.1% [at 46 µM] | –
10 | COc1ccc(C(C)=O)cc1CSc1nc(NCc2ccccc2)c2ccccc2n1 | inconclusive: 13.1% [at 46 µM] | –
11 | CCN(CC)c1ccc(S(=O)(=O)N(CC)CC)cc1NC(=O)C1CCCC1 | inactive: 9.91% [at 46 µM] | –
12 | COc1cc(N=Nc2cccc(S(N)(=O)=O)c2)c2ccccc2c1N | inconclusive: -22.4% [at 9.22 µM] | –
13 | COCCN(C(=O)CNC(=O)c1cccs1)C(C(=O)NC1CCCCC1)c1ccco1 (centres undefined) | inconclusive: 6.06% | –
14 | S=c1nc(-c2cc(Cl)ccc2Cl)[nH][nH]1 | inactive: -5.95% [at 46 µM] | –
15 | Cc1oc(/N=C/c2ccccc2O)c(C#N)c1C | inconclusive: 3.15% | –
16 | CC1(C)CC(N=Cc2c(O)n(Cc3ccc4c(c3)OCO4)c(=O)c3ccccc23)CC(C)(C)N1 | inconclusive: -21.8% [at 46 µM] | –
17 | CCOC(=O)c1cc(S(=O)(=O)N2CCN(c3ccccc3OC)CC2)[nH]n1 | inactive: -3.5% [at 46 µM] | –
18 | CCN1C(=O)/C(=C2/C=Cc3cc(C)ccc3N2CC)N(C)C1=S | inactive: -13.8% | –
19 | CCOc1ccccc1NC(=O)CSc1nnc(-c2ccco2)n1Cc1ccco1 | inconclusive: 7.57% | –
20 | CC1Cc2ccccc2N1C(=O)Cn1c(=O)oc2cc(S(=O)(=O)NC3CCCC3)ccc21 (centres undefined) | inactive: -5.23% | –
21 | O=S(=O)(Nc1nc2ccccc2nc1Cl)c1ccccc1 | inactive: -14.9% | –
22 | Cc1cc(-c2csc(N)n2)c(C)n1C | inactive: 8.3% | –
23 | CCOc1cc(/C=C2\C(=O)N(c3nc(-c4ccc(Br)cc4)cs3)N=C2c2ccccc2)ccc1O | inconclusive: -39.6% | –
24 | COc1cccc(Cn2c(=O)c(-c3cccs3)nc3cncnc32)c1 | inconclusive: -0.637% | –
25 | Cc1cccc(C)c1OCC(O)CN(Cc1ccccc1O)C1CCCCC1 (centres undefined) | inconclusive: -55.1% [at 46 µM] | –
26 | C#CCOCCOCCOCCNc1nc(N2CCN(C(=O)[C@H]([C@@H](C)CC)n3cc(CCCN=C(N)N)nn3)CC2)nc(N2CCN(C(=O)[C@H](CCCCN)n3cc(CCCC)nn3)CC2)n1 | inactive: 5.16% | –
27 | FC(F)(F)c1ccccc1-c1cncnc1NCCc1cnc[nH]1 | inactive: 7.34% | –

Another view of 21 compounds above:
Row	SMILES	ratio change, negative = inhibition	Potency
7	Cn1c(=O)cc(SCC(=O)NCCC2=CCCCC2)c2ccccc21	inactive: -10.6%	–
8	CCOc1ccc(CCNC(=O)c2c3c(nc4ccccc24)C(=O)N(C2CCCCC2)C3)cc1	inactive: -1.1% [at 46 µM]	–
9	CC(CNC(=O)c1cc2cc(S(=O)(=O)N3CCCCC3)ccc2n1C)c1ccccc1 (centres undefined)	inconclusive: -10.1% [at 46 µM]	–
10	COc1ccc(C(C)=O)cc1CSc1nc(NCc2ccccc2)c2ccccc2n1	inconclusive: 13.1% [at 46 µM]	–
11	CCN(CC)c1ccc(S(=O)(=O)N(CC)CC)cc1NC(=O)C1CCCC1	inactive: 9.91% [at 46 µM]	–
12	COc1cc(N=Nc2cccc(S(N)(=O)=O)c2)c2ccccc2c1N	inconclusive: -22.4% [at 9.22 µM]	–
13	COCCN(C(=O)CNC(=O)c1cccs1)C(C(=O)NC1CCCCC1)c1ccco1 (centres undefined)	inconclusive: 6.06%	–
14	S=c1nc(-c2cc(Cl)ccc2Cl)[nH][nH]1	inactive: -5.95% [at 46 µM]	–
15	Cc1oc(/N=C/c2ccccc2O)c(C#N)c1C	inconclusive: 3.15%	–
16	CC1(C)CC(N=Cc2c(O)n(Cc3ccc4c(c3)OCO4)c(=O)c3ccccc23)CC(C)(C)N1	inconclusive: -21.8% [at 46 µM]	–
17	CCOC(=O)c1cc(S(=O)(=O)N2CCN(c3ccccc3OC)CC2)[nH]n1	inactive: -3.5% [at 46 µM]	–
18	CCN1C(=O)/C(=C2/C=Cc3cc(C)ccc3N2CC)N(C)C1=S	inactive: -13.8%	–
19	CCOc1ccccc1NC(=O)CSc1nnc(-c2ccco2)n1Cc1ccco1	inconclusive: 7.57%	–
20	CC1Cc2ccccc2N1C(=O)Cn1c(=O)oc2cc(S(=O)(=O)NC3CCCC3)ccc21 (centres undefined)	inactive: -5.23%	–
21	O=S(=O)(Nc1nc2ccccc2nc1Cl)c1ccccc1	inactive: -14.9%	–
22	Cc1cc(-c2csc(N)n2)c(C)n1C	inactive: 8.3%	–
23	CCOc1cc(/C=C2\C(=O)N(c3nc(-c4ccc(Br)cc4)cs3)N=C2c2ccccc2)ccc1O	inconclusive: -39.6%	–
24	COc1cccc(Cn2c(=O)c(-c3cccs3)nc3cncnc32)c1	inconclusive: -0.637%	–
25	Cc1cccc(C)c1OCC(O)CN(Cc1ccccc1O)C1CCCCC1 (centres undefined)	inconclusive: -55.1% [at 46 µM]	–
26	C#CCOCCOCCOCCNc1nc(N2CCN(C(=O)[C@H]([C@@H](C)CC)n3cc(CCCN=C(N)N)nn3)CC2)nc(N2CCN(C(=O)[C@H](CCCCN)n3cc(CCCC)nn3)CC2)n1	inactive: 5.16%	–
27	FC(F)(F)c1ccccc1-c1cncnc1NCCc1cnc[nH]1	inactive: 7.34%	–

Continued.

Row | SMILES | ratio change, negative = inhibition | Potency
28 | Cc1nc(NC(=O)c2cccnc2)ccc1Br | inactive: -11.8% | –
29 | CC1(C)NC(=O)N(CCCOc2ccc3c(c2)CCC3)C1=O | – | inconclusive: 35.5 µM [fluorescent, single point]
30 | COc1ccc(CNc2ncnc3ccc(-c4c(C)noc4C)cc23)c(OC)c1 | – | active: 2.82 µM
31 | COc1ccc(CNc2ncnc3ccc(-c4cccc(C#N)c4)cc23)c(OC)c1 | inconclusive: -18.1% | –
32 | COc1ccc2c(c1)SCC/C2=C\CN1C(=O)CCC1=O | inconclusive: 3.86% | –
33 | CCOC(CCn1c(SCc2ccc([N+](=O)[O-])cc2)nc2ccccc2c1=O)OCC | – | inconclusive: 35.5 µM [fluorescent, single point]
34 | COC(=O)c1ccc2nc(NC(=O)C3CCCCC3)sc2c1 | inconclusive: 2.31% [at 46 µM] | –
35 | CSCCC(NC(=O)OC(C)(C)C)C(=O)Oc1ccc2c(=O)c(-c3ccc4c(c3)OCCO4)coc2c1 (centres undefined) | inconclusive: 30.4% [at 46 µM] | –
36 | Cc1ccc(-c2nc(Cn3c(SCc4ccc(F)cc4)nc4cccnc43)c(C)o2)cc1 | inconclusive: -13.6% [at 46 µM] | –
37 | CCOC(=O)N1CCc2c(sc(NCc3cccc(F)c3)c2C(=O)Nc2ccc(OCC)cc2)C1 | inconclusive: 18.9% [at 46 µM] | –
38 | O=C(O)c1ccccc1COc1ccccc1Cl | inconclusive: -2.64% | –
39 | CCn1c(CSc2ncn[nH]2)nc2cc(C(=O)O)ccc21 | inconclusive: 10.1% [at 46 µM] | –
40 | CCCCCC(=O)N/N=C/c1ccc(N(C)C)cc1 | inconclusive: -10.2% | –
41 | Cc1cc(C(=O)N/N=C/c2ccc(OCc3ccccc3)cc2)c(C)o1 | inconclusive: -32.2% [at 46 µM] | –
42 | C=C1C(=O)[C@@]23[C@H](O)C[C@@H]4C(C)(C)CC[C@H](O)[C@]4(C)[C@@H]2C[C@H](O)[C@@H]1[C@H]3O | – | inconclusive: 10 µM [falling, partial curve]
43 | Cn1c(=NC(=O)c2ccco2)sc2ccccc21 | inactive: -10.1% [at 46 µM] | –
44 | CCCCNc1ncnc2c1cnn2-c1ccc(Cl)cc1 | inconclusive: -32% | –
45 | CCN(CC)c1ccc2cc(-c3nc(-c4ccccc4)no3)c(=O)oc2c1 | inconclusive: 8.57% [at 46 µM] | –
46 | CSc1ccc(CNC(=O)c2ccc3c(c2)N(C)C(=O)C2CCCCN32)cc1 (centres undefined) | inactive: -20.8% [at 46 µM] | –
47 | Brc1cc2c(cc1C1Nc3ccccc3C3C=CCC31)OCO2 (centres undefined) | – | inconclusive: 35.5 µM [falling, single point]
48 | Nc1nc2ccccc2n1/N=C/c1ccc([N+](=O)[O-])s1 | inconclusive: 84.4% | –
49 | O=C(Nc1ccc(N2CCN(C(=O)c3ccccc3)CC2)cc1)c1cc2ccccc2o1 | inactive: -3.34% | –
50 | CCOC(=O)N1N=C(CC)CC1(O)C(F)(F)F (centres undefined) | inactive: -3.23% | –
51 | C=CCNc1ccc(N2C(=O)C3CCC(C)CC3C2=O)cc1[N+](=O)[O-] (centres undefined) | inconclusive: -20.1% [at 46 µM] | –
52 | CCOc1ccc2nc(SCC#N)c(C#N)cc2c1 | inconclusive: -1.02% | –
53 | S=C(NCCC(c1ccccc1)c1ccccc1)Nc1cccc(Cl)c1 | – | inconclusive: 15.8 µM [cytotoxic, partial curve]
54 | CC(=O)Nc1ccc(NC(=O)CN2C(=O)CCc3cc(S(=O)(=O)N4CCCCC4)ccc32)cc1 | inconclusive: 14.3% [at 46 µM] | –

Row | SMILES | ratio change, negative = inhibition | Potency
55 | O=c1c(-c2ccc(F)cc2)nc2cnc(Oc3ccccc3)nc2n1Cc1cccs1 | inconclusive: -17.6% | –
56 | O=C1CC(c2cccc(F)c2)c2c(c3ccccc3[nH]c2=O)O1 (centres undefined) | inactive: -10.4% [at 9.22 µM] | –
57 | COc1ccccc1CNc1ccnc(-c2ccccc2OC)n1 | inconclusive: -28.1% | –
58 | NC(=O)CC[C@@H]1NC(=O)[C@@H]2CCCN2C(=O)c2cc([N+](=O)[O-])cc(F)c2NCCC[C@@H](C(N)=O)NC1=O | inconclusive: -4.68% | –
59 | O=c1[nH]ncc(N/N=C\c2cccs2)c1Cl | inconclusive: 90.8% [at 46 µM] | –
60 | Cc1cc(O)c2c(c1)C(=O)c1cccc(O)c1C2=O | inconclusive: 5.2% | –
61 | COc1ccc(CC(=O)OC(C)CN2CCOCC2)cc1 (centres undefined) | inconclusive: 9.79% [at 46 µM] | –
62 | CCCCCCOc1ccc(NC(=O)CC2C(=O)N(CC)C(=S)N2Cc2ccco2)cc1 (centres undefined) | – | inconclusive: 35.5 µM [inhibitor, single point]
63 | CC(=O)N1c2ccccc2CC1C(=O)N1CCN(c2cc(Cl)ccc2C)CC1 (centres undefined) | inconclusive: -14.9% [at 46 µM] | –
64 | COc1cccc(/C=C/c2nc3ccccc3c(=O)n2-c2ccc(C)c(C)c2)c1OC | – | inconclusive: 15.8 µM [inhibitor, partial curve, poor fit]
65 | COc1ccc(Cl)cc1S(=O)(=O)N1CCC(c2ccncc2)CC1 | inconclusive: -16.4% [at 46 µM] | –
66 | C=C1c2cc(C)ccc2NC(=O)N1c1ccccc1 | inconclusive: -5.86% | –
67 | COc1ccc(-c2nnc(SCC(=O)Nc3ccc(C)c(Cl)c3)nc2-c2ccc(OC)c(OC)c2)cc1OC | – | inconclusive: 35.5 µM [rising, single point]
68 | Nc1nnc(SCc2coc(-c3ccc(Cl)cc3)n2)s1 | – | inconclusive: 35.5 µM [falling, single point]
69 | Cc1ccc(C(=O)N2CCCC(CCC(=O)N3CCN(c4ccccn4)CC3)C2)s1 (centres undefined) | inconclusive: 8.38% [at 46 µM] | –
70 | Cc1nc(NC(=O)C2CC3CCCC(C2)C3=O)sc1C (centres undefined) | inactive: 8.23% | –
71 | O=C(CSc1nnc(NC(=O)c2ccc3c(c2)OCO3)s1)NCc1ccco1 | inconclusive: 9.49% [at 46 µM] | –
72 | Oc1c(CN2CCCCC2)cc(COCc2ccccc2)c2cccnc12 | – | inconclusive: 17.8 µM [falling, single point]
73 | CCn1c(C(=O)N2CCC(Cc3ccccc3)CC2)cc2sccc21 | inconclusive: -41.7% | –
74 | Cn1c(=O)c2nc3ccccc3nc2n(C)c1=O | inconclusive: -12.3% [at 46 µM] | –
75 | Cc1ccsc1/C=N/NC(=O)c1ccc(Cn2cc(Br)cn2)o1 | – | inconclusive: 11.2 µM [fluorescent, partial curve]
76 | CCOC(=O)c1oc2ccccc2c1CN1CCN(c2ccccc2)CC1 | inactive: 2.82% | –
77 | CCOC(=O)c1c(NC(=O)CSc2nnc(-c3c[nH]c4ccccc34)n2CCOC)sc2c1CCCC2 | inconclusive: -37% | –
78 | O=C(Nc1nc(-c2ccccc2)cs1)c1ccc(S(=O)(=O)N2CCc3ccccc32)cc1 | inconclusive: -55.9% | –
79 | CN(C)CCNC(=O)/C(=C/c1ccc(-c2ccc(Cl)cc2Cl)o1)NC(=O)c1ccccc1 | inconclusive: -25.5% | –
